{
  "sequences": {"note": "Chains of the proteins cited; added tags and fusions are not shown.", "UniProt Q92830, whole entry, looked up": "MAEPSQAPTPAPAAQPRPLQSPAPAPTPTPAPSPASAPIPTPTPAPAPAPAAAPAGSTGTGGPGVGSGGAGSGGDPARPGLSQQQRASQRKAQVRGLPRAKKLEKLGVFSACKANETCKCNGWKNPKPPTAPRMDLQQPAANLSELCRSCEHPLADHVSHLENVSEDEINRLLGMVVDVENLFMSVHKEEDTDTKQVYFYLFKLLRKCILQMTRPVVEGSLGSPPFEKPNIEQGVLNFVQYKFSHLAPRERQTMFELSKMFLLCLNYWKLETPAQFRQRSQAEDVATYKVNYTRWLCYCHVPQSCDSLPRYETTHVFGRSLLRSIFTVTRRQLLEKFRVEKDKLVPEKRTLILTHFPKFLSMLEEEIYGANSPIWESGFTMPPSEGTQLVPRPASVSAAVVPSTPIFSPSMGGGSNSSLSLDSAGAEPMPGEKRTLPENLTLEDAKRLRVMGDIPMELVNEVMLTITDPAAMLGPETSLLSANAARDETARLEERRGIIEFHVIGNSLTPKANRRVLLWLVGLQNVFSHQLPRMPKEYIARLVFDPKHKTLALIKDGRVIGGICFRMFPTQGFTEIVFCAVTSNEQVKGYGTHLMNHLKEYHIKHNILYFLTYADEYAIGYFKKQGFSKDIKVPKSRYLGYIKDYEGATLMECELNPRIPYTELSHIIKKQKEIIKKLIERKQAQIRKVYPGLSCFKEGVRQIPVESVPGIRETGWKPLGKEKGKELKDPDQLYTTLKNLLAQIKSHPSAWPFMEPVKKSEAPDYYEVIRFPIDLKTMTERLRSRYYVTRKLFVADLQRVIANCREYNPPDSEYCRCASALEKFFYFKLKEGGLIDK"},
  "source": "PubChem BioAssay AID504327",
  "about": "(National Center for Advancing Translational Sciences (NCATS), 2011)",
  "note": "Values joined by “and” are separate entries in the source; they are usually repeats but may differ in a detail not shown here. Identical values can stand only once. The campaign covered roughly 390,000 compounds. About 820 (0.21%) were called active. Inconclusive means that the source gave no clear call. Such entries were picked first, then a sample of the others. Calls follow the shape of the dose curve; as a rule, active = well fitted inhibition curve with a large enough effect; inconclusive = small, poorly fitted or top-dose-only effect, or another doubt; inactive = no such curve, though single readings can be large or run the other way. Potencies beside an inconclusive call are fits to weak or partial responses and may not hold up. More than one record can exist for a structure, and the calls need not agree. Residues, ends and D or L forms follow the SMILES beside them. *: point of attachment. Boc = CC(C)(C)OC(=O)*; Bn = c1ccc(C*)cc1",
  "data": [
    {"molecular_target": "Histone acetyltransferase KAT2A (Homo sapiens) (UniProt Q92830)", "assay": "qHTS Assay for Inhibitors of GCN5L2; also: potency is read from the fitted curve at half-maximal effect", "settings": "GCN5L2 HAT assay, ThioGlo1 CoA-SH fluorescence; series mostly up to 58.9 µM", "in_short": "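Preincubate 20nM GCN5L2 with compound 15 min, RT → add 50uM ThioGlo1 + 75uM H3(1-25) + 70uM acetyl-CoA → read fluorescence 0 and 20 min. Primary qHTS; fluorescent artifacts likely.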", "values": [
      {"molecule": "CC(=O)N1c2ccc(S(=O)(=O)N3CCCC3C(=O)NCc3ccccc3Cl)cc2CC1C", "note": "(configuration not stated)", "Potency": "inactive"},
      {"molecule": "O=c1c(-c2cccs2)nc2cnc(N3CCNCC3)nc2n1-c1ccccc1", "Potency": "inconclusive: 25.1 µM [inhibitor, partial curve]"},
      {"molecule": "COc1cc(/C=N/NC(=O)C2COc3ccccc3O2)ccc1O", "note": "(configuration not stated)", "Potency": "inactive"},
      {"molecule": "Cc1cn(-c2cc(C(=O)Nc3ccc(C)c(NC(=O)N4CCNC4=O)c3)cc(C(F)(F)F)c2)cn1", "Potency": "inconclusive: 1.12 µM [inhibitor, full curve, poor fit]"},
      {"molecule": "CCN(CC)c1ccc(NC(=O)C2CCCN(S(=O)(=O)c3ccc4c(c3)oc(=O)n4C)C2)c(C)c1", "note": "(configuration not stated)", "Potency": "inactive"},
      {"molecule": "Cc1ccccc1N1C(=O)CC(N2CCN(C(=O)c3ccco3)CC2)C1=O", "note": "(configuration not stated)", "Potency": "inconclusive: 0.447 µM [inhibitor, single point]"},
      {"molecule": "COc1ccccc1CN(Cc1cc2cc3c(cc2[nH]c1=O)OCCO3)Cc1nnnn1Cc1ccco1", "Potency": "inconclusive: 39.8 µM [inhibitor, single point]"},
      {"molecule": "CC(C)c1ccc(/C=C2\\SC(=O)N(CC(=O)NC3CCS(=O)(=O)C3)C2=O)cc1", "note": "(configuration not stated)", "Potency": "inconclusive: 39.8 µM [inhibitor, partial curve]"},
      {"molecule": "COCCCNCCOCCOc1ccc(C)cc1[N+](=O)[O-]", "Potency": "inconclusive: 3.98 µM [inhibitor, single point]"},
      {"molecule": "CS(=O)(=O)Oc1ccc2c(c1)O/C(=C\\c1cccnc1)C2=O", "Potency": "inconclusive: 0.1 µM [inhibitor, full curve, poor fit]"},
      {"molecule": "CC(=O)Oc1ccc2c(C)c(CC(C)O)c(=O)oc2c1", "note": "(configuration not stated)", "Potency": "inconclusive: 31.6 µM [inhibitor, partial curve]"},
      {"molecule": "Cc1cc(C(=O)N/N=C/c2c3ccccc3cc3ccccc23)n[nH]1", "Potency": "inactive"},
      {"molecule": "O=C(Nc1ncc(Cc2cccc(Cl)c2)s1)c1ccc([N+](=O)[O-])cc1", "Potency": "inconclusive: 3.16 µM [inhibitor, single point]"},
      {"molecule": "O=C(N/C(=C/c1ccc(F)cc1)C(=O)N1CCOCC1)c1ccccc1", "Potency": "inconclusive: 5.01 µM [inhibitor, single point]"},
      {"molecule": "O=C(Cc1ccc(Cl)cc1)N1CCN(c2ccccc2)CC1", "Potency": "inconclusive: 8.91 µM [inhibitor, single point]"},
      {"molecule": "COc1ccc(N(CC(=O)N2CCC(Cc3ccccc3)CC2)S(C)(=O)=O)cc1", "Potency": "inconclusive: 7.08 µM [inhibitor, single point]"},
      {"molecule": "COc1ccc(CNc2ccnc(-c3c(C)noc3C)n2)c(OC)c1", "Potency": "inconclusive: 39.8 µM [inhibitor, single point]"},
      {"molecule": "O=C(Cc1cccc(C(F)(F)F)c1)Nc1ccccc1N1CCCC1", "Potency": "inconclusive: 0.141 µM [inhibitor, full curve, poor fit]"},
      {"molecule": "CC(C)CC(NC(=O)C(CC(C)C)NC(=O)C(Cc1ccc(OCc2ccccc2)cc1)NC(=O)OC(C)(C)C)C(N)=O", "note": "(stereo not drawn) (Boc-Tyr(Bn)-Leu-Leu-NH2; configuration not given here)", "Potency": "inconclusive: 6.31 µM [inhibitor, single point]"},
      {"molecule": "O=C(CSc1nnc(CNC(=O)c2ccccc2)o1)NCc1ccc(F)cc1", "Potency": "inconclusive: 0.631 µM [inhibitor, full curve, poor fit]"},
      {"molecule": "CCCCCCCCCCCCCCCC(=O)OC(C)C", "Potency": "inactive"},
      {"molecule": "O=C1NCN(c2ccccc2)C12CCN(c1nnnn1-c1ccccc1)CC2", "Potency": "inconclusive: 31.6 µM [inhibitor, single point]"},
      {"molecule": "Cc1ccc(OCCSc2nc3ccccc3n2CC(=O)N2CCOCC2)cc1C", "Potency": "inactive"},
      {"molecule": "CCOC(=O)c1c(NC(=O)Cn2cnc([N+](=O)[O-])n2)sc(C)c1C", "Potency": "inactive"},
      {"molecule": "O=C(CSc1nnc(CNC(=O)c2c(F)cccc2Cl)o1)NC1CCCCC1", "Potency": "inconclusive: 39.8 µM [inhibitor, single point]"},
      {"molecule": "O=C(C1CCCC1)N1CCCC(Nc2ccccc2)C1", "note": "(configuration not stated)", "Potency": "inconclusive: 39.8 µM [inhibitor, partial curve]"},
      {"molecule": "CC[C@H]1C(c2ccc(F)cc2)=NN(c2ccccc2)[C@@H]1CO", "Potency": "active: 39.8 µM"},
      {"molecule": "Cc1ccc(C2=NS(=O)(=O)N(C)C(C(=O)NCc3ccc(F)cc3)=C2)cc1", "Potency": "inconclusive: 7.08 µM [inhibitor, single point]"},
      {"molecule": "CCOC(=O)c1noc2ncnc(N3CCC(C)CC3)c12", "Potency": "inactive"},
      {"molecule": "COc1ccc(C2=NS(=O)(=O)N(C)C(C(=O)N3CCCCC3)=C2)cc1OC", "Potency": "inconclusive: 39.8 µM [inhibitor, single point]"},
      {"molecule": "CC(=O)c1ccc(NC(=O)c2sc3nc(N4CCOCC4)c4c(c3c2N)CCCC4)cc1", "Potency": "inconclusive: 28.2 µM [inhibitor, single point]"},
      {"molecule": "CCCN(CCC)CCCNC(=O)c1cc2c(=O)n(C)c3ccccc3c2n1C", "Potency": "inconclusive: 39.8 µM [inhibitor, single point]"},
      {"molecule": "CCOc1ccc(-c2c(C(=O)N/N=C/c3ccc(OC(C)C)cc3)nnn2-c2nonc2N)cc1", "Potency": "inconclusive: 15.8 µM [inhibitor, single point]"},
      {"molecule": "O=C(c1ccco1)N1CCN(C(c2ccc(Cl)cc2)c2nnnn2CC2CCCO2)CC1", "note": "(configuration not stated)", "Potency": "inactive"},
      {"molecule": "CCOC(=O)Cc1c(C)c2ccc(N(CC)CC)cc2oc1=O", "Potency": "inconclusive: 15.8 µM [inhibitor, partial curve]"},
      {"molecule": "COC(=O)c1cccc(Oc2cccc(Cl)n2)c1", "Potency": "inactive"},
      {"molecule": "O=C(NC(=S)Nc1cc([N+](=O)[O-])ccc1O)C1CC1", "Potency": "inconclusive: 6.31 µM [inhibitor, single point]"},
      {"molecule": "Cc1ccc(OCC(=O)NC2CC(C)(C)NC(C)(C)C2)cc1C", "Potency": "inactive"},
      {"molecule": "Cc1cccc(NC(=O)c2cc(-c3cc(C)cc(C)c3O)n[nH]2)c1", "Potency": "inconclusive: 25.1 µM [inhibitor, partial curve]"},
      {"molecule": "COc1ccccc1/C=C/C(=O)OCC(=O)NCCC1=CCCCC1", "Potency": "inactive"},
      {"molecule": "O=C(N/N=C/c1ccc([N+](=O)[O-])cc1)c1ccc2nc[nH]c2c1", "Potency": "inactive"},
      {"molecule": "CCOc1cc(/C=C(\\C#N)C(=O)Nc2cccc(C(=O)O)c2)ccc1OCc1ccccc1Cl", "Potency": "inconclusive: 35.5 µM [inhibitor, single point]"},
      {"molecule": "CCCNC(=O)NC(=O)CN1C(=O)NC(C)(c2ccc3ccccc3c2)C1=O", "note": "(configuration not stated)", "Potency": "inactive"},
      {"molecule": "Cc1ccc(C(=O)OCC(=O)c2ccc(CC(=O)N3CCOCC3)s2)c(C)c1", "Potency": "inconclusive: 28.2 µM [inhibitor, single point]"},
      {"molecule": "CCCC(NC(=O)Cc1c(C)c2cc3c(C)c(C)oc3c(C)c2oc1=O)C(=O)N[C@@H](Cc1ccccc1)C(=O)O", "note": "(some centres not stated)", "Potency": "inconclusive: 39.8 µM [inhibitor, partial curve, poor fit]"},
      {"molecule": "Cc1oc2c(c(C)cc3oc(=O)c(CC(=O)N[C@@H](C)C(=O)O)c(C)c32)c1C", "Potency": "inconclusive: 22.4 µM [inhibitor, single point]"},
      {"molecule": "CCc1nnc(NC(=O)c2ccc(C)o2)s1", "Potency": "inconclusive: 10 µM [inhibitor, partial curve]"},
      {"molecule": "N#C/C(=C\\c1coc2ccc(O)cc2c1=O)C(=O)Nc1nc2ccccc2s1", "Potency": "inconclusive: 17.8 µM [inhibitor, single point]"},
      {"molecule": "CCCCCCCCCCCC(=O)OCC(O)C1OCC(O)C1O", "note": "(configuration not stated)", "Potency": "inconclusive: 12.6 µM [inhibitor, partial curve]"},
      {"molecule": "CCCCCc1c2c(cc(O)c1C(=O)O)OC(=O)c1c(cc(OC)cc1C(=O)CCCC)O2", "Potency": "inconclusive: 35.5 µM [inhibitor, single point]"},
      {"molecule": "N[C@H](C(=O)O)c1ccc(O)c(C(=O)O)c1", "Potency": "inconclusive: 39.8 µM [inhibitor, single point]"},
      {"molecule": "O=C(c1cccs1)N1CCN(C(=O)C(c2ccccc2)c2ccccc2)CC1", "Potency": "inconclusive: 0.631 µM [inhibitor, single point]"},
      {"molecule": "Cc1cccc(C)c1-n1ncc(C(=O)N2CCN(c3ccccc3)CC2)c1C1CCN(C(=O)OC(C)(C)C)CC1", "Potency": "inactive"},
      {"molecule": "CCN(CC)S(=O)(=O)c1ccc(/C=C/C(=O)OCC(=O)NCc2ccco2)cc1", "Potency": "inconclusive: 3.16 µM [inhibitor, single point]"},
      {"molecule": "O=C1OCCN1C(=O)[C@H]1[C@H](c2ccccc2)C(c2cccc(Cl)c2)=NN1c1ccccc1", "Potency": "inconclusive: 31.6 µM [inhibitor, partial curve, poor fit] and inconclusive: 31.6 µM [inhibitor, single point]"},
      {"molecule": "Cc1nc(-c2ccccn2)nc(SCC(=O)N2CCOCC2)c1Cl", "Potency": "inactive"},
      {"molecule": "Cc1ccc(OCCNC(=O)c2ccco2)cc1C", "Potency": "inconclusive: 39.8 µM [inhibitor, single point]"},
      {"molecule": "CCOC(=O)c1ccc(NC(=S)NNC(C)(C)C)cc1", "Potency": "inactive"},
      {"molecule": "CCc1ccc(C2CC(=O)Nc3cc4c(cc32)OCO4)cc1", "note": "(configuration not stated)", "Potency": "inactive"},
      {"molecule": "CCN(C(=O)Nc1cccc(Cl)c1)c1ccccc1", "Potency": "inconclusive: 7.08 µM [inhibitor, single point]"},
      {"molecule": "CCCCn1nc2cc(C(=O)NCC3CC3)ccc2c1OCC", "Potency": "inconclusive: 39.8 µM [inhibitor, single point]"},
      {"molecule": "S=c1cnc2ccccc2[nH]1", "Potency": "inactive"},
      {"molecule": "CCOC(=O)c1cc2c(C)n(-c3ccc(OCC)cc3)c(C)c2ccc1=O", "Potency": "inactive"},
      {"molecule": "Cc1cccc(N2CCN(Cc3cnc(Cl)s3)CC2C)c1", "note": "(configuration not stated)", "Potency": "inconclusive: 39.8 µM [inhibitor, single point]"},
      {"molecule": "Cc1onc(-c2c(Cl)cccc2Cl)c1C(=O)N=S(C)(=O)c1ccccc1", "note": "(configuration not stated)", "Potency": "inconclusive: 39.8 µM [inhibitor, single point]"},
      {"molecule": "Cn1nc(-c2ccccc2)cc1NC(=O)c1ccccc1", "Potency": "inactive"},
      {"molecule": "O=[N+]([O-])c1cccc(S(=O)(=O)Nc2cccc(-c3ccc(N4CCCC4)nn3)c2)c1", "Potency": "inconclusive: 0.141 µM [inhibitor, full curve, poor fit]"}
    ]}
  ]
}
